Experimental data as given in patent publication US20230413811A1 (priority 2020, published 2023).
For at least one compound, name, drawing or mass did not settle the structure.

Test system: Plasmopara viticola strain PvS
Experiment: Preventive protection of grapevine leaf discs against downy mildew
Format: in vivo
Conditions: 2267 ppm, preventive 24 h

With `CCCCCCCCCCCCNC(=N)N` [Dodine, dodecyl guanidinium] the “control towards Downy Mildew” value was “full control”.
